According to patent publication US9781933B2, “Tetrazolinone compound and use thereof” (Sumitomo Chemical Company, Limited, priority 2013, dated 2017):
Some results were stated once for a whole list of compounds, not compound by compound. For at least one compound, name, drawing or mass did not settle the structure.

Tested on: cucumber powdery mildew fungus (Sphaerotheca fuliginea, a QoI-resistant strain)
Type: in vivo
Conditions: 500 ppm foliar spray, cucumber (SAGAMI HANJIRO), cytochrome b position 143 glycine to alanine, 8 days

Q: Which “area of lesion relative to that on an untreated plant” value (“area of lesion relative to that” for short) does the source give for `Cc1cccc(-n2nnn(C)c2=O)c1COc1ccn(-c2ccc(C(F)(F)F)cn2)n1` [compound 16] here?
A: The value was at most 30%.

Q: How did the “area of lesion relative to that” value turn out when `Cc1cccc(-n2nnn(C)c2=O)c1COc1ccn(-c2ccsc2)n1` [compound 25] was run?
A: The value was at most 30%.

Q: `Cc1cccc(-n2nnn(C)c2=O)c1COc1ccn(-c2ccc(F)cn2)n1` [compound 40] was tested. Which “area of lesion relative to that” value did it give?
A: Its value is at most 30%.

Q: With `Cc1cccc(-n2nnn(C)c2=O)c1COc1ccn(-c2ccc(Br)cn2)n1` [compound 42] as the compound, how does the “area of lesion relative to that” value read?
A: Its value is at most 30%.

Q: For `COc1ccc(-n2ccc(OCc3c(C)cccc3-n3nnn(C)c3=O)n2)nn1` [compound 44], which “area of lesion relative to that” value is on record?
A: Its value is at most 30%.

Q: `Cc1cccc(-n2nnn(C)c2=O)c1COc1ccn(-c2ncc(Br)s2)n1` [compound 45] was tested. Which “area of lesion relative to that” value did it give?
A: The value was at most 30%.

Q: How did the “area of lesion relative to that” value turn out when `Cc1cccc(-n2nnn(C)c2=O)c1COc1ccn(-c2ncc(Cl)s2)n1` [compound 54] was run?
A: The value was at most 30%.

Q: For `Cc1cccc(-n2nnn(C)c2=O)c1COc1ccn(-c2ccc3ccccc3n2)n1` [compound 58], which “area of lesion relative to that” value is on record?
A: Its value is at most 30%.
